For at least one compound, name, drawing or mass did not settle the structure.
Experiments:
[1] = tested on: Ifnβ1 mRNA; experiment: Quantitative PCR of Ifnβ1 mRNA in MDSC; format: cell-based, mice; conditions: BM-MDSC developed with 150 ng/ml ethidium bromide
Procedure: Total RNA was isolated from MDSC using TRIzol (Life Technologies). Reverse transcription was performed using Verso cDNA Synthesis Kit (Thermo Scientific). Quantitative PCR reactions were prepared by using Bio-Rad SYBR green master mix and performed on an Applied Biosystems thermocycler (7900 HT) using primers described in Key Resources Table

[2] = tested on: murine BM-MDSC; experiment: In vitro suppression assay with murine BM-MDSC; format: cell-based, mouse; conditions: BM-MDSC developed with 150 ng/ml ethidium bromide
Procedure: Mouse BM-MDSC were generated after culturing BM precursors with GM-CSF and G-CSF (20 ng/ml each) for 4 days. In vitro generated MDSC were treated with either LLC tumor explant supernatants (TES, since day 0) or Thaps (200 nM, for the last 24 hours of culture). Human BM-MDSC were developed after culturing BM or peripheral blood precursors from healthy donors with GM-CSF and IL-6 (10 ng/ml each) for a period of 6 days (Thevenot et al., 2014). To induce UPR activation, MDSC were treated with either supernatants from renal cell carcinoma cells 786-0 (hTES) for 6 days (Rodriguez et al., 2009) or Thaps during the last 24 hours before collection (200 nM). In some experiments, MDSC were pre-incubated for 3 hours with Resveratrol (100 μM, Sigma-Aldrich), D,L-Sulphoraphane (20 μM), AMG-44 (5 μM), or TUDCA (500 nM) before treating with Thaps.
Murine BM-MDSC (ratio 1:1/8) or tumor-MDSC (ratio 1:1/4) were co-cultured with negatively selected CD3^+ T cells in a 96 well plate bound α-CD3 and α-CD28 (1 μg/ml each, eBioscience) for 3 days. T cell proliferation was assessed with Carboxyfluorescein succinimidyl ester (CFSE) or Cell-trace violet (Invitrogen) dye dilution detected by flow cytometry. […] Results are expressed as percentage of proliferating T cells, determined by the dilution of fluorescence compared with non-stimulated T cells.

CC[n+]1c(-c2ccccc2)c2cc(N)ccc2c2ccc(N)cc21 [ethidium bromide]
Ifnβ1 mRNA in Thaps-treated Eif2ak3^KO-Tek BM-MDSC [1]: prevented the induction of Ifnβ1 mRNA | suppressive activity of Thaps-treated Eif2ak3^KO-Tek BM-MDSC [2]: partially restored the suppressive activity
